# The campaign covered roughly 290,000 compounds. About 110 (0.038%) were called active. Inconclusive means that the source gave no clear call. Such entries were picked first, then a sample of the others. Calls follow the shape of the dose curve; as a rule, active = well fitted inhibition curve with a large enough effect in the polarisation, with a control signal flat (not every such curve was filed as active); inconclusive = small, poorly fitted or top-dose-only effect, or effect the other way, or a change in a side signal; inactive = no such curve, though single readings can be large or run the other way; the % refers to the polarisation. Where the call is inconclusive, the potency comes from a doubtful curve fit. A note “side channel” means that the fit belongs to a control or component signal, not to the main read-out.
# The chains behind the UniProt entries cited, without tags or fusion partners.
# UniProt Q03164, whole entry, looked up: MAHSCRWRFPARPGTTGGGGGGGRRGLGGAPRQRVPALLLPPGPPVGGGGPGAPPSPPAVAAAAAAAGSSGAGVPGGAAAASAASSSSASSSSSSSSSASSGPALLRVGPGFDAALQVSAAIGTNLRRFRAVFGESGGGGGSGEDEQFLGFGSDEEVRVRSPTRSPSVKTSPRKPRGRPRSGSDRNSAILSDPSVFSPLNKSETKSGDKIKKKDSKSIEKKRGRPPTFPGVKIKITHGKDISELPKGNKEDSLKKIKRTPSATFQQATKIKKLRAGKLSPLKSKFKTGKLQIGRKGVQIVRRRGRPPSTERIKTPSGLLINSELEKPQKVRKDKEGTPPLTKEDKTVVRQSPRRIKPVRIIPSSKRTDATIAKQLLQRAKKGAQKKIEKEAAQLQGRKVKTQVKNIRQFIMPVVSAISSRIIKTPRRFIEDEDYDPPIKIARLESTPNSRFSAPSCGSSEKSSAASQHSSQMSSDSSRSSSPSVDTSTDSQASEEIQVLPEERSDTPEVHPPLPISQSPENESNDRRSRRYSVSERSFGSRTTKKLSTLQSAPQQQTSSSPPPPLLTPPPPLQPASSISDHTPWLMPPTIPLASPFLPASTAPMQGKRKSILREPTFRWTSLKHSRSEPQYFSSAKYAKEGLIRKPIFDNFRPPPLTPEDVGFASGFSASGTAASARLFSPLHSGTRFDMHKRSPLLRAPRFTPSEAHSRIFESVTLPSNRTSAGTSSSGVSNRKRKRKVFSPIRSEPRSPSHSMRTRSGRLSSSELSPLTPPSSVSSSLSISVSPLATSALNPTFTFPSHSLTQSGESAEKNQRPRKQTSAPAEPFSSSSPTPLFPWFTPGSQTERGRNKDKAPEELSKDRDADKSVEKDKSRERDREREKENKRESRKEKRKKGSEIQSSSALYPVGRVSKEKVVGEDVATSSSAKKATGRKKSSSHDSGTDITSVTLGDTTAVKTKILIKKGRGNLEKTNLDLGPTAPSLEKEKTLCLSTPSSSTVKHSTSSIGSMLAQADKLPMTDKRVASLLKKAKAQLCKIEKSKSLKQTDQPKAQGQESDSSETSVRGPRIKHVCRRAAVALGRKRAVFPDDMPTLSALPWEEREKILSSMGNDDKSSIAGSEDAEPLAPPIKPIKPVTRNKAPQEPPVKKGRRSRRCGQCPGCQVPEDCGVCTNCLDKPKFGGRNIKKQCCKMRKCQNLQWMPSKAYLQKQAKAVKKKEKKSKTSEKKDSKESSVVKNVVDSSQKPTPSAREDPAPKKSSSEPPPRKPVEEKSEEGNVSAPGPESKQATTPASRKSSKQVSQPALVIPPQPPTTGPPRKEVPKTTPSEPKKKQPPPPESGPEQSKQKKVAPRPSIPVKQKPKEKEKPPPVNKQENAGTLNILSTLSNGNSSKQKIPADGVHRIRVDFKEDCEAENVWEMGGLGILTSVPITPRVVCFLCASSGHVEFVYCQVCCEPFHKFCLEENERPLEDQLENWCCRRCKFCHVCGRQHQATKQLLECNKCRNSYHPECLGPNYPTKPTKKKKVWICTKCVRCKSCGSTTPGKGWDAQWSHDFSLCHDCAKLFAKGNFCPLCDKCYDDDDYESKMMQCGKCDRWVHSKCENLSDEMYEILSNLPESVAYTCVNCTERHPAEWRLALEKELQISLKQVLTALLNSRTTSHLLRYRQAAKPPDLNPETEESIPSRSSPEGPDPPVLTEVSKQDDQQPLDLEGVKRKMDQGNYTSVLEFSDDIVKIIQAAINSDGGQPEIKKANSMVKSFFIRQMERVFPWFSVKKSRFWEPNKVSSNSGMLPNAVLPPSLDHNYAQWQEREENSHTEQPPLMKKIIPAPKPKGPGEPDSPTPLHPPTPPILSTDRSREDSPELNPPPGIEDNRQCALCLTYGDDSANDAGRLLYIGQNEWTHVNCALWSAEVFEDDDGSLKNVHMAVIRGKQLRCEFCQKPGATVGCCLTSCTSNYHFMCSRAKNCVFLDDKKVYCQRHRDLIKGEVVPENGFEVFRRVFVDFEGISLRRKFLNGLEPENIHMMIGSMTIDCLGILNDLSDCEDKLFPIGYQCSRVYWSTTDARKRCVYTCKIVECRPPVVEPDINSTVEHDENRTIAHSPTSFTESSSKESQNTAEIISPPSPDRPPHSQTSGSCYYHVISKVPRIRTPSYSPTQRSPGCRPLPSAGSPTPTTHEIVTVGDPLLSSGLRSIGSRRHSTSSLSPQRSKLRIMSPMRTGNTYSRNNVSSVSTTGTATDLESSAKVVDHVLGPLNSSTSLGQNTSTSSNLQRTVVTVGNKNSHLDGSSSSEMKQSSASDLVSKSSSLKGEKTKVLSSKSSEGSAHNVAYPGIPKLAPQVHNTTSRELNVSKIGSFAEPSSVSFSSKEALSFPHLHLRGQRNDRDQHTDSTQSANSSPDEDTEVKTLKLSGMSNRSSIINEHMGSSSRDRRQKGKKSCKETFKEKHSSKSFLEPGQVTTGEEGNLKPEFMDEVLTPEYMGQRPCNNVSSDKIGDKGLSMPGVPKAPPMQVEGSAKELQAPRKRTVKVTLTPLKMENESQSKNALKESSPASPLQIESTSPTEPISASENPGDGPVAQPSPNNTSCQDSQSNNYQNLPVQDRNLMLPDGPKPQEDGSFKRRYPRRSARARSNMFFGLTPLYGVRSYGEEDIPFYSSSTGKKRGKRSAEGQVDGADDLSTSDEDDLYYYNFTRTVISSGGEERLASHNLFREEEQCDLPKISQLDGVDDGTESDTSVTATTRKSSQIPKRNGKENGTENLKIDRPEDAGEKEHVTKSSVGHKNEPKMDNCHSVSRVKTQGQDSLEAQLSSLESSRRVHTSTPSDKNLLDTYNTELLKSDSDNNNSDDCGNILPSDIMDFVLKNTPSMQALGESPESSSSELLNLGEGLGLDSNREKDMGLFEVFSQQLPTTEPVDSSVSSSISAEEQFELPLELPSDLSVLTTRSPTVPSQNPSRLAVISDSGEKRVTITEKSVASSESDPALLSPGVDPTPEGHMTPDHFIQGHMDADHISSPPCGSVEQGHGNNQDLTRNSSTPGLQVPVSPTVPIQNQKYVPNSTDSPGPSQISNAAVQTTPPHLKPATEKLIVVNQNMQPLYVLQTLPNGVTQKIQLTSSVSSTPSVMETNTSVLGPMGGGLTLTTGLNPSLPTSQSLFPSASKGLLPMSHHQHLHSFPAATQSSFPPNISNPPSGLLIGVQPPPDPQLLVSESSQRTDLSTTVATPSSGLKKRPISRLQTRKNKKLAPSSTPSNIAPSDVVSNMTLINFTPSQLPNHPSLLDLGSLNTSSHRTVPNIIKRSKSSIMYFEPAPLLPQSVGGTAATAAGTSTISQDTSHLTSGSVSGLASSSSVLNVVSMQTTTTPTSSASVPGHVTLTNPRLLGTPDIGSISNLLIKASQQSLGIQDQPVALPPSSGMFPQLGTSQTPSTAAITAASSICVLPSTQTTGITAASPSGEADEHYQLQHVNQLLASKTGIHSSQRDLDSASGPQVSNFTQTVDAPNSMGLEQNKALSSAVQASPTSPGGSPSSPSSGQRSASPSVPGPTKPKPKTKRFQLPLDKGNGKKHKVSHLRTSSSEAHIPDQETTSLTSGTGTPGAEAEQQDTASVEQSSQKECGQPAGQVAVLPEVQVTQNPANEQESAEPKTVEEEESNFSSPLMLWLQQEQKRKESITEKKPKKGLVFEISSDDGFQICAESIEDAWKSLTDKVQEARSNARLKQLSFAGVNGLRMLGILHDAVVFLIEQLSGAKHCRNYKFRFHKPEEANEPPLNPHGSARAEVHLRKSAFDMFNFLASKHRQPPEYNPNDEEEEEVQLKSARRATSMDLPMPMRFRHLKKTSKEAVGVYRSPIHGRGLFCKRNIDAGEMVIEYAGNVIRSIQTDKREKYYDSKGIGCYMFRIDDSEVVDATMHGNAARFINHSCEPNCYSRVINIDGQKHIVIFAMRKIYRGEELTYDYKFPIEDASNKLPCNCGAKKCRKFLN
# Target: Histone-lysine N-methyltransferase 2A (Homo sapiens) (UniProt Q03164)
# Test: qHTS Fluorescence Polarization Assay for Inhibitors of MLL CXXC domain - DNA interaction
# Conditions: MLL-CXXC / FITC-HOXA9 DNA fluorescence polarization; activity change, negative = inhibition: at 115 µM (top of the series)
# How it was run: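 Purified MLL-CXXC (added from a 7 uM solution) was preincubated 5 min at ambient with pinned compounds in 50 mM Tris-HCl pH 7.5, 50 mM NaCl, 1 mM DTT, 0.05% BSA. Fluorescein-labeled HOX-A9 DNA (50 nM solution) followed, 30 min, then polarization read.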
# Potency is read from the fitted curve at half-maximal effect.
SMILES,Potency,"activity change, negative = inhibition"
O=C1ON=C(c2ccccc2)/C1=C/c1ccc(-c2ccccc2[N+](=O)[O-])o1,"inconclusive: 39.8 µM [inhibitor, single point]",–
COc1cc(/C=C2\SC(=S)N(C(C(=O)O)c3ccccc3)C2=O)ccc1O (centres undefined),"inconclusive: 7.94 µM [fluorescent, side channel, partial curve]",–
Cc1cc(NS(=O)(=O)c2ccc(NC(=O)/C=C/c3ccc(Br)cc3)cc2)no1,"inconclusive: 12.6 µM [inhibitor, partial curve]",–
COC(=O)c1ccc(COc2ccc(C(=O)c3ccccc3)cc2)o1,"inconclusive: 17.8 µM [fluorescent, side channel, partial curve]",–
CCCNC(=S)Nc1ccccc1,"inconclusive: 44.7 µM [fluorescent, side channel, single point]",–
COc1ccccc1/C=C/C(=O)OCCN1CCOCC1,–,inactive: -5.15%
COC(=O)C1=C(C)N=c2s/c(=C/c3ccoc3)c(=O)n2C1c1ccccc1 (centres undefined),"inconclusive: 25.1 µM [fluorescent, side channel, partial curve]",–
O=C(O)CN1C(=O)/C(=C\c2ccc(OC(=O)c3ccco3)cc2)SC1=S,"inconclusive: 25.1 µM [fluorescent, partial curve]",–
O=C1CN(C(=O)CSc2nc(-c3ccccc3)cs2)c2ccccc2N1,–,inactive: 7.34%
COc1cccc(Nc2nc3ccccc3nc2NS(=O)(=O)c2cccs2)c1,"inconclusive: 0.891 µM [inhibitor, full curve, poor fit]",–
C#CCOc1ccc(Cl)cc1/C=C1/C(=O)ON=C1C,"inconclusive: 14.1 µM [fluorescent, side channel, single point]",–
CC1(C)CC(N=c2cc(-c3ccccc3)oc3ccc(Cl)cc23)CC(C)(C)N1,"inconclusive: 35.5 µM [quencher, side channel, partial curve]",–
COc1ccccc1CNC(=O)CSc1ccc(Br)cc1,"inconclusive: 70.8 µM [inhibitor, single point]",–
COc1ccc2nc(C)cc(N3CCC(C(N)=O)CC3)c2c1,"inconclusive: 7.94 µM [fluorescent, side channel, full curve]",–
CCOc1ccc2noc3c2c1C(=O)c1ccccc1-3,"inconclusive: 7.08 µM [fluorescent, side channel, full curve]",–
O=C(N/N=C1\CCc2ccccc21)c1ccc(O)cc1,"inconclusive: 31.6 µM [inhibitor, partial curve]",–
COc1cccc(CNC(=O)COc2cc(O)c3c(c2)OC(C)(C)CC3=O)c1,–,inactive: 4.19%
Cc1cccc(N2CCN(CC(=O)Nc3nccs3)CC2)c1C,"inconclusive: 56.2 µM [fluorescent, side channel, single point]",–
O=C(Nc1ccc(N2CCCC2)cc1)c1ccc(Br)cc1,"inconclusive: 44.7 µM [quencher, side channel, partial curve]",–
CC(C)c1ccc(NC(=O)N2CCOCC2)cc1,–,inactive: 5.29%
O=C(COC(=O)CSc1ccc(F)cc1)NCC1CCCCC1,"inconclusive: 14.1 µM [quencher, side channel, single point]",–
COc1cc2c(c(OCC(=O)NC(C)C)c1)C(=O)O[C@@H](C)CCCC(=O)CCCCC2,"inconclusive: 7.94 µM [fluorescent, side channel, partial curve]",–

SMILES,Potency,"activity change, negative = inhibition"
Cc1cccc(OCC(=O)Nc2ccc3c(c2)nc(CN2CCCCC2)n3C)c1,–,inactive: 1.75%
C/C(=N\NC(=O)CCC(=O)Nc1ccc(C)c(C)c1)c1cccs1,"inconclusive: 100 µM [inhibitor, partial curve]",–
CN(C)/C=C/C(=O)Oc1ccc(Cl)cc1Cl,"inconclusive: 15.8 µM [inhibitor, single point]",–
CN(CC#CC1(O)c2ccccc2-c2ccccc21)Cc1ccccc1,"inconclusive: 14.1 µM [fluorescent, side channel, single point]",–
C[N+](C)(C)CCC(=O)c1cccc2ccccc12,–,inactive: 26.6%
COc1cc(/C=N/NC(=O)c2[nH]nc3c2CCc2ccccc2-3)ccc1O,–,inconclusive: 29.1% [phenotype inactive]
COc1ccc(N2CCN(C(=O)c3cccnc3)CC2)c([N+](=O)[O-])c1,"inconclusive: 89.1 µM [inhibitor, single point]",–
Cc1c(C(=O)Nc2nc3ccccc3[nH]2)oc2ccccc12,–,inactive: 23.2%
O=C(Nc1ccc(N2CCN(C(=O)c3ccccc3F)CC2)cc1)c1cncc(Br)c1,–,inactive: 17.2%
Cc1ccc(C)c(N(C(=O)c2ccco2)C(C(=O)NC2CCCC2)c2ccco2)c1 (centres undefined),–,inactive: 2.98%
CCCSc1nc(-c2ccccc2)cc(C(F)(F)F)c1C#N,–,inactive: -2.38%
CN(C)CCCN(C(=O)c1ccc(S(=O)(=O)N(C)C2CCCCC2)cc1)c1nc2ccc(Br)cc2s1,"inconclusive: 7.94 µM [quencher, side channel, single point]",–
C=Cc1c(C)/c2[n-]/c1=C\c1[n-]c(c(CC)c1C)/C=c1\[n-]c3c(c1C)C(=O)C(C(=O)[O-])C=3c1[n-]c(c(C)c1CCC(=O)[O-])\C=2.[Cu].[Na+].[Na+] (centres undefined),"inconclusive: 39.8 µM [inhibitor, partial curve]",–
NC(=O)C1CCN(C(=O)c2cccc(S(=O)(=O)N3CCc4ccccc4C3)c2)CC1,–,inactive: 9.62%
COc1ccc(/C=C/C(=O)Oc2ccc(C)c(C)c2)cc1OC,"inconclusive: 1.12 µM [fluorescent, side channel, full curve]",–
COc1cc2nc(/C=C/c3ccc(N(C)C)cc3)sc2cc1SC,"inconclusive: 31.6 µM [fluorescent, side channel, partial curve]",–
N#CC1(c2ccc(NC(=O)c3ccccc3)cc2)CCCC1,"inconclusive: 15.8 µM [inhibitor, single point]",–
Cc1[nH]c2ccccc2c1C(C#N)(C#N)C1C(=O)c2ccccc2C1=O,"inconclusive: 31.6 µM [fluorescent, partial curve]",–
O=C1NC(=O)c2cc(NC(=O)C3CCCO3)ccc21 (centres undefined),–,inactive: -1.38%
O=C1NC(=O)/C(=C/c2ccccc2Oc2ccc(Cl)cc2)S1,"inconclusive: 12.6 µM [inhibitor, partial curve]",–
CCOc1ccc(C2NC(=O)C(C#N)=C(S)N2c2cccc(C)c2)cc1OC (centres undefined),"inconclusive: 89.1 µM [inhibitor, single point]",–
CCCN1CCC(CCOc2ccccc2)(C(=O)OCC)CC1,–,inactive: -1.13%

SMILES,Potency,"activity change, negative = inhibition"
O=C(/C=C/c1ccc(F)cc1)N1CCN(S(=O)(=O)/C=C/c2ccccc2)CC1,"inconclusive: 10 µM [fluorescent, side channel, full curve, poor fit]",–
COc1ccc2c(-c3ccccc3)cc(SC(C)C(N)=O)nc2c1 (centres undefined),–,inactive: 17%
CC(C)(C)c1cc(C(=O)N/N=C/c2ccc(O)cc2)n(-c2ccccc2)n1,"inconclusive: 6.31 µM [fluorescent, side channel, single point]",–
Cc1ccc(C2C3CN(C(C)C)CC=C3C(C#N)=C(N)C2(C#N)C#N)cc1 (centres undefined),"inconclusive: 35.5 µM [fluorescent, side channel, single point]",–
Cc1cccn2c(=O)c3cc(C(=O)NC4CCCCC4)sc3nc12,"inconclusive: 1 µM [fluorescent, side channel, full curve, poor fit]",–
CS(=O)(=O)N1CCC(C(=O)Nc2cccc([N+](=O)[O-])c2)CC1,"inconclusive: 70.8 µM [inhibitor, single point]",–
COC(=O)N/N=C\C=C\c1ccc2c(c1)OCO2,–,inactive: -0.456%
NS(=O)(=O)c1ccc(N/N=C/c2ccc(O)c(O)c2O)c([N+](=O)[O-])c1,"inconclusive: 15.8 µM [quencher, side channel, full curve, poor fit]",–
COc1cc(C(=O)OCC(=O)Nc2cc(-c3cc(C)c(C)cc3C)nn2-c2ccccc2)cc(OC)c1OC,"inconclusive: 14.1 µM [inhibitor, single point]",–
Clc1nc(CN2CCCCC2)nc2sc3c(c12)CCC3,"inconclusive: 63.1 µM [fluorescent, side channel, single point]",–
COc1ccc(OC)c(NC(=O)CNC(c2ccccc2)c2ccccc2)c1,"inconclusive: 56.2 µM [fluorescent, side channel, single point]",–
COc1cc(C=O)cc(Cl)c1OC(=O)N1CCOCC1,"inconclusive: 11.2 µM [fluorescent, side channel, partial curve]",–
COc1ccc(NC(=O)C2CCCN(c3nccc(C)n3)C2)cc1 (centres undefined),–,inactive: 4.43%
O=C(N/N=C\c1ccc(Cl)s1)c1ccc(Cn2cccn2)o1,–,inactive: 2.79%
CCOC(=O)Cn1c(=N)n(CCOc2cccc(C)c2)c2ccccc21,"inconclusive: 70.8 µM [quencher, side channel, single point]",–
O=C(O)c1cccc(CN2C(=O)c3ccccc3C2=O)c1,"inconclusive: 14.1 µM [inhibitor, single point]",–
CCOCC(=O)Nc1ccc([N+](=O)[O-])cc1OC,"inconclusive: 10 µM [inhibitor, single point]",–
Cc1ccc(-c2cc(-c3n[nH]c(=S)o3)c3ccccc3n2)cc1,–,inactive: 1.04%
Cc1nn(-c2ccccc2)c(C)c1/C=N/NC(=O)CSc1nnc(-c2ccccc2)n1-c1ccc(Cl)cc1,"inconclusive: 25.1 µM [fluorescent, side channel, partial curve, poor fit]",–
COc1ccc(-c2csc(/C(C#N)=C\c3ccc(O)c([N+](=O)[O-])c3)n2)cc1OC,"inconclusive: 35.5 µM [inhibitor, single point]",–

# 3 of the compounds above, as tab-separated lines:
SMILES	Potency	activity change, negative = inhibition
CC(C)(C)c1cc(C(=O)N/N=C/c2ccc(O)cc2)n(-c2ccccc2)n1	inconclusive: 6.31 µM [fluorescent, side channel, single point]	–
Cc1ccc(C2C3CN(C(C)C)CC=C3C(C#N)=C(N)C2(C#N)C#N)cc1 (centres undefined)	inconclusive: 35.5 µM [fluorescent, side channel, single point]	–
Cc1cccn2c(=O)c3cc(C(=O)NC4CCCCC4)sc3nc12	inconclusive: 1 µM [fluorescent, side channel, full curve, poor fit]	–

# — PubChem BioAssay AID2662 (National Center for Advancing Translational Sciences (NCATS), 2010)
